Measurements published in article PMC12690290.

By UniProt entry, the sequences of proteins in these tests, tags left out. Where a name states a change or a piece, a line headed by the entry shows the natural chain unless it says otherwise. Residues count along the entry.
UniProt P02787, residues 20-698: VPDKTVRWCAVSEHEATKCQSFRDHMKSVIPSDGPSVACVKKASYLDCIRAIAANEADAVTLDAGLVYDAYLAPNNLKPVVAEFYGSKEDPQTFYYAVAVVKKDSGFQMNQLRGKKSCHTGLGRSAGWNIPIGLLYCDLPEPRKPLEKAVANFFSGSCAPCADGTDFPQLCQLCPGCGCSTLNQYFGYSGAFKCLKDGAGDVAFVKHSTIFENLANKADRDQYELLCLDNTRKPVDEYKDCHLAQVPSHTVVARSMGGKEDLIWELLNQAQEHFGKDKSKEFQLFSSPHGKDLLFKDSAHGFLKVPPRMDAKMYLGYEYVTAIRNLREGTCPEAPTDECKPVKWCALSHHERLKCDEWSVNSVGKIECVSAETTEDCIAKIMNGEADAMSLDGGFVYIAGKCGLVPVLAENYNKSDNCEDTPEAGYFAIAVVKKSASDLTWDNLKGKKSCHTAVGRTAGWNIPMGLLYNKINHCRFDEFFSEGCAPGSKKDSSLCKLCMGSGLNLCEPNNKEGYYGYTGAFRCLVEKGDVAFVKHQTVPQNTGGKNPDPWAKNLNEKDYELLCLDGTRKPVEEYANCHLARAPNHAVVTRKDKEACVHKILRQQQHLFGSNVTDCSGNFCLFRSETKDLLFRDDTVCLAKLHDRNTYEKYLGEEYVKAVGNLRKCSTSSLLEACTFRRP
UniProt P02652, residues 19-100: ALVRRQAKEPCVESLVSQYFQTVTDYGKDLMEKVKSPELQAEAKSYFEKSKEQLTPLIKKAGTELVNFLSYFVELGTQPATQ
UniProt P05090, residues 21-189: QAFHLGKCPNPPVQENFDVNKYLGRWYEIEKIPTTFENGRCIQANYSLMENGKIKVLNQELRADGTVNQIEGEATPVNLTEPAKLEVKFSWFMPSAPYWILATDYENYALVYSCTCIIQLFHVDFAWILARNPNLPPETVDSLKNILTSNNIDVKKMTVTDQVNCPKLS
UniProt P02749, residues 20-345: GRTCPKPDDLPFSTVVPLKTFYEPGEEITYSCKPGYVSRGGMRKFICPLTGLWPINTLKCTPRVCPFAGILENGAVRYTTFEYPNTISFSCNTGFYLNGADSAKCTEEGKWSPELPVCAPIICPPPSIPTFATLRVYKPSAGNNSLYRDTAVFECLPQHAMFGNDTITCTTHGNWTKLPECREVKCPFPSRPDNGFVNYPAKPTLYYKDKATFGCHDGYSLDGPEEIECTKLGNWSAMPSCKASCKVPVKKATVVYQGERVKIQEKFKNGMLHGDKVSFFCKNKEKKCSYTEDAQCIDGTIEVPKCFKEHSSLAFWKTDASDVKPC
UniProt P00751, residues 26-764: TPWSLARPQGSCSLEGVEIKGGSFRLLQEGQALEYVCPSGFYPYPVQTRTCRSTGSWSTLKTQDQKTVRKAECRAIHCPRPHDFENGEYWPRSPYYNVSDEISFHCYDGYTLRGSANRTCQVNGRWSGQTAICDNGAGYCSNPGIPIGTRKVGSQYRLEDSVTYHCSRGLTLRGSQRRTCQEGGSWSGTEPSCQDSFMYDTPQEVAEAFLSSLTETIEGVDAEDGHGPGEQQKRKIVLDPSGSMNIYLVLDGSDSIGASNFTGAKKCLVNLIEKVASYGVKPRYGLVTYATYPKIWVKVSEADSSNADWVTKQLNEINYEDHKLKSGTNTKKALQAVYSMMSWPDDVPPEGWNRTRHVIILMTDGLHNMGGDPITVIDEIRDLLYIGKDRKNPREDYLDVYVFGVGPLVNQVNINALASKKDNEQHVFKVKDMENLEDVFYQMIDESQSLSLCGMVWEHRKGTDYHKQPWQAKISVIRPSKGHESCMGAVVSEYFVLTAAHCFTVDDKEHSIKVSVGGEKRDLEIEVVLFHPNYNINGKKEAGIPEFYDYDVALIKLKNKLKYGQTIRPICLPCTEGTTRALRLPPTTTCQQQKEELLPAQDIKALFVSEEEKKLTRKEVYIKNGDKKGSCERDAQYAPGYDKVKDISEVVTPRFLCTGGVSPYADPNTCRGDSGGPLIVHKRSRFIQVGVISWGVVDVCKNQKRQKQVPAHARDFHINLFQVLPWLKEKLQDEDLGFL
UniProt P00746: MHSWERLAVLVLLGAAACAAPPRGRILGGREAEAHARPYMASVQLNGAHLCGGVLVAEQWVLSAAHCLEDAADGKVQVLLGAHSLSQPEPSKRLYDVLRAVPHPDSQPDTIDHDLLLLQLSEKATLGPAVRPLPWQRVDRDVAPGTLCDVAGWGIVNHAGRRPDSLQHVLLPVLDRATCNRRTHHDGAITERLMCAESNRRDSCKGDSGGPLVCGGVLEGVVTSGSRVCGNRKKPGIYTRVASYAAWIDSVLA
UniProt P05156, residues 19-583: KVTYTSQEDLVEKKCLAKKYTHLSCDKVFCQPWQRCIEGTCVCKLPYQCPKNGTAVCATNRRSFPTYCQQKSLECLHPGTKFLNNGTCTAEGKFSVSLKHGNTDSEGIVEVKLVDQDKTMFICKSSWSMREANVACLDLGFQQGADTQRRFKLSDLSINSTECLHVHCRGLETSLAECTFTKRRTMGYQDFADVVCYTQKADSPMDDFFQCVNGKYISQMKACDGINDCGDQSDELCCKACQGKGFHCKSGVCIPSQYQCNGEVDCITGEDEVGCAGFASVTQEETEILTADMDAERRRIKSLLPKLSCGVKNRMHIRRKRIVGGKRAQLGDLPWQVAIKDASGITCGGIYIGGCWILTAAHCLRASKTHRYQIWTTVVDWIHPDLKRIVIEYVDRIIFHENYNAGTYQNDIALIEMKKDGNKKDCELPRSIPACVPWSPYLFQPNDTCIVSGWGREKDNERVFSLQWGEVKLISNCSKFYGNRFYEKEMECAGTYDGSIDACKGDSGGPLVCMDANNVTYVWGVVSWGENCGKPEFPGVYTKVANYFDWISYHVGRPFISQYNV
UniProt Q14624, residues 29-930: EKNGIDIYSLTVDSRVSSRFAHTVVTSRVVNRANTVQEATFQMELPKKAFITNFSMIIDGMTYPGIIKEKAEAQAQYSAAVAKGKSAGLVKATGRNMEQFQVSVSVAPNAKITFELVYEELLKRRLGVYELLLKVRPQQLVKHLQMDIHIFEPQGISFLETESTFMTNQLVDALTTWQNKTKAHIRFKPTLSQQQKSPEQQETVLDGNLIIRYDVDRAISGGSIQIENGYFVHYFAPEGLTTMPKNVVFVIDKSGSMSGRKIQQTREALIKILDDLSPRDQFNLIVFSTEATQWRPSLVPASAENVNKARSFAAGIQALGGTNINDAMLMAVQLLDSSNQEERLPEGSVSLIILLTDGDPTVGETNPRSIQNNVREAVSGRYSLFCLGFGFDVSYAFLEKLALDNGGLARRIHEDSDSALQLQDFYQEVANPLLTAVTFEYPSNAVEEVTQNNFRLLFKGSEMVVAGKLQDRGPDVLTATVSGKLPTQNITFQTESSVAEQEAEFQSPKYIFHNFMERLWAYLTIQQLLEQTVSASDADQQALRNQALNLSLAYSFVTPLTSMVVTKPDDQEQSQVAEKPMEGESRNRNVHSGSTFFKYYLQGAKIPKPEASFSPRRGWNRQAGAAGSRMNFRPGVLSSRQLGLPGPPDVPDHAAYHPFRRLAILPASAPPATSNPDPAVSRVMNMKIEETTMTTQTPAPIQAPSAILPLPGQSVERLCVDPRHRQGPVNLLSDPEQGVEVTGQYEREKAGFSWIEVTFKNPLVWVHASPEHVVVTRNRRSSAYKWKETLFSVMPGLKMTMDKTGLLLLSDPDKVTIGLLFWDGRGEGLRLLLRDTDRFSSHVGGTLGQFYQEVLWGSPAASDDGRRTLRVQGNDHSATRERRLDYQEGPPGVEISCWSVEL
UniProt P00747: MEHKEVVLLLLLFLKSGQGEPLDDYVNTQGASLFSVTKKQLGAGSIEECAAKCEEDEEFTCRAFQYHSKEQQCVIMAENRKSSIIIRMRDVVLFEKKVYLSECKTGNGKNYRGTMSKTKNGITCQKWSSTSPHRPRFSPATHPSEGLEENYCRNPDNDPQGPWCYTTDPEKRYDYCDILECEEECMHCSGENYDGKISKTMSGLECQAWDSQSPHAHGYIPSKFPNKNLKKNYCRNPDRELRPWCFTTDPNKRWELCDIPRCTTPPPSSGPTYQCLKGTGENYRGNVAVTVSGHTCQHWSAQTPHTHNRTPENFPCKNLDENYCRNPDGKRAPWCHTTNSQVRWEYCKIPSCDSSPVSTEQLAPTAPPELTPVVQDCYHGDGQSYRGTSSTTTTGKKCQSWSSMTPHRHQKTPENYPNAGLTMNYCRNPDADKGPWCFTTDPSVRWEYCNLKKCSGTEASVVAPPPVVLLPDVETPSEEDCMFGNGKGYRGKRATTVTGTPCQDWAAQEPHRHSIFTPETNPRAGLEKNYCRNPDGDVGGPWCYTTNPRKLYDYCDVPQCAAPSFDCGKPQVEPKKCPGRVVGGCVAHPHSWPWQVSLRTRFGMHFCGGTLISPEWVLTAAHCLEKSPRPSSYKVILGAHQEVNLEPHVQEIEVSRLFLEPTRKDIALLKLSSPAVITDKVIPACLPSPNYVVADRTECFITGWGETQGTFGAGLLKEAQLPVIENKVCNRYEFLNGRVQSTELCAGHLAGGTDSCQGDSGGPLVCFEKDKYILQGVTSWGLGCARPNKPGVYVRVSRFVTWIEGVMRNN
UniProt P03952, residues 20-638: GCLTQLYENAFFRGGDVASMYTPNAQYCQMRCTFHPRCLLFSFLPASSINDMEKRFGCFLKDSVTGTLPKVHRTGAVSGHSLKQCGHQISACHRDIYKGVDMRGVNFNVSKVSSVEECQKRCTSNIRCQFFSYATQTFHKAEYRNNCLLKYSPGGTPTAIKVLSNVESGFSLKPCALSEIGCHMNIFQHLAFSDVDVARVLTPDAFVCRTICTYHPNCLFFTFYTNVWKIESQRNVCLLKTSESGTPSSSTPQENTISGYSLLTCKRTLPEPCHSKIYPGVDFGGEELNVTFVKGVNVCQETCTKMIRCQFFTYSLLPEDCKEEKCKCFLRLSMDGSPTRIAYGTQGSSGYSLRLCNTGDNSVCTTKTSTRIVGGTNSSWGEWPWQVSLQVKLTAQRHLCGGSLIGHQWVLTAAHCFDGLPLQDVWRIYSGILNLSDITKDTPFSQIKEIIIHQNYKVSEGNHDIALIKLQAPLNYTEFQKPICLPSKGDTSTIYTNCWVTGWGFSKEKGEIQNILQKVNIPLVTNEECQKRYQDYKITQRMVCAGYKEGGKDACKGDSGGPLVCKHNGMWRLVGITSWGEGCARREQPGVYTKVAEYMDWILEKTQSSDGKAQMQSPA
UniProt P19474: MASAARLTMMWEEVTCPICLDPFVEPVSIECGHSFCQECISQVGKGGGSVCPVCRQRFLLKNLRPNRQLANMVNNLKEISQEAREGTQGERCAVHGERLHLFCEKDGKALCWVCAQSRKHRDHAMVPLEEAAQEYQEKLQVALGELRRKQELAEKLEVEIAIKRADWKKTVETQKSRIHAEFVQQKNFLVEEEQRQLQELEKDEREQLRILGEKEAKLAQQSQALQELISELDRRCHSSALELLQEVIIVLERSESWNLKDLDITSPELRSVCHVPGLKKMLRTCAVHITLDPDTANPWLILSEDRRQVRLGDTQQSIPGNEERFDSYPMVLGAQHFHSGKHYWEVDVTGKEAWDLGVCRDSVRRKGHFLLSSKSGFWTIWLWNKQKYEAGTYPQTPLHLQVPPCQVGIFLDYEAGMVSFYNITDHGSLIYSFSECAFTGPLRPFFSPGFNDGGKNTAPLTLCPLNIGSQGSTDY

Key:
[1] = biological target: holo-human transferrin (human) (UniProt P02787); experiment: affinity purification with mass spectrometry; proto-heme–human HPX, mesoheme–rabbit HPX or holo-human Tf Affi-Gel 15; detergent extracts of primary human hepatocytes; proteins found on underivatized, mouse IgG or ovalbumin resins filtered out; only the target purified
[2] = biological target: T1, mesoheme–rabbit hemopexin (1:1 heme–HPX complex) (rabbit) (UniProt P20058); experiment: as above
T1 sequence: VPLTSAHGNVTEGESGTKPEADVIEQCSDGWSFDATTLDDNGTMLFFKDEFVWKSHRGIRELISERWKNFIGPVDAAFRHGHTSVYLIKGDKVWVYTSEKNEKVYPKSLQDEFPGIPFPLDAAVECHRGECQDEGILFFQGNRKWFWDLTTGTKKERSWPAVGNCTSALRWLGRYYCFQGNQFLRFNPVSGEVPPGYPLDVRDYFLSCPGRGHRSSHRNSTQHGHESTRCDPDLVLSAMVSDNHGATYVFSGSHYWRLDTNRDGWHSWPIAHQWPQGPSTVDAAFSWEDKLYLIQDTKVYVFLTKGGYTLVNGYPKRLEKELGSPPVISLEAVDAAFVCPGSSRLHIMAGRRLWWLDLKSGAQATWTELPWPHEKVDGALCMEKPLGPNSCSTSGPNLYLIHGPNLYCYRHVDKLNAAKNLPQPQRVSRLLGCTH

[3] = biological target: holo-human transferrin (human) (UniProt P02787); experiment: affinity purification with mass spectrometry; heme–HPX or holo-human Tf Affi-Gel 15 against ovalbumin Affi-Gel 15; HepG2 whole-cell extracts (0.5% Triton X-100, HEPES pH 7.4, 150 mM NaCl); 2-fold or greater over the negative control counted as specifically bound; only the target purified
[4] = biological target: T2, heme–human hemopexin (1:1 heme–HPX complex) (human) (UniProt P02790); experiment: affinity purification with mass spectrometry; proto-heme–human HPX, mesoheme–rabbit HPX or holo-human Tf Affi-Gel 15; detergent extracts of primary human hepatocytes; proteins found on underivatized, mouse IgG or ovalbumin resins filtered out; only the target purified
T2 sequence: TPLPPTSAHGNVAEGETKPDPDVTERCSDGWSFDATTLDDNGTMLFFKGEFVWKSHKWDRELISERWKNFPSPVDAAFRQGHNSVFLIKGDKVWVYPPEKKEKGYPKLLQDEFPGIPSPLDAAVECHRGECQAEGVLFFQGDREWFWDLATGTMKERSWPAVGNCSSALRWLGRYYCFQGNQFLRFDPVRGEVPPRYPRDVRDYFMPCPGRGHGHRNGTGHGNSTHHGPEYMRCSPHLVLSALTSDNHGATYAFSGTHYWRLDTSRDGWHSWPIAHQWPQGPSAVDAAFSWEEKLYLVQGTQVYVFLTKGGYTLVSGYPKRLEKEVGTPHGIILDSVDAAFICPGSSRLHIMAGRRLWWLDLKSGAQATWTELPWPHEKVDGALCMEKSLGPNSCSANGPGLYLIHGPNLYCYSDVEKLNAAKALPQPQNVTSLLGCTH

[5] = biological target: T1, mesoheme–rabbit hemopexin (1:1 heme–HPX complex) (rabbit); experiment: affinity purification with mass spectrometry; heme–HPX or holo-human Tf Affi-Gel 15 against ovalbumin Affi-Gel 15; HepG2 whole-cell extracts (0.5% Triton X-100, HEPES pH 7.4, 150 mM NaCl); 2-fold or greater over the negative control counted as specifically bound; only the target purified

| Molecule | binding [1] | binding [2] | binding [3] | binding [4] | binding [5] |
| --- | --- | --- | --- | --- | --- |
| Apolipoprotein A-II (from UniProt P02652 19-100) | binds | binds |  |  |  |
| Apolipoprotein D (from UniProt P05090 21-189) | binds | binds |  |  |  |
| Apolipoprotein H (from UniProt P02749 20-345) | binds | binds | binds |  |  |
| Complement factor B (from UniProt P00751 26-764) (enzyme) | binds | binds |  |  |  |
| Complement factor D (from UniProt P00746) (enzyme) | binds |  |  |  |  |
| Complement factor I (from UniProt P05156 19-583) (enzyme) | binds | binds |  | binds |  |
| Inter-alpha-trypsin inhibitor heavy chain H4 (from UniProt Q14624 29-930) | binds | binds |  |  |  |
| Plasminogen (from UniProt P00747) (enzyme) | binds | binds |  |  |  |
| Prekallikrein B1 (from UniProt P03952 20-638) (enzyme) | binds | binds |  | binds |  |
| Tripartite motif-containing protein 21 (from UniProt P19474 1-475) |  |  | binds |  | binds |
| Complement component 2 (protein, UniProt P06681 21-752) APSCPQNVNISGGTFTLSHGWAPGSLLTYSCPQGLYPSPASRLCKSSGQWQTPGATRSLSKAVCKPVRCPAPVSFENGIYTPRLGSYPVGGNVSFECEDGFILRGSPVRQCRPNGMWDGETAVCDNGAGHCPNPGISLGAVRTGFRFGHGDKVRYRCSSNLVLTGSSERECQGNGVWSGTEPICRQPYSYDFPEDVAPALGTSFSHMLGATNPTQKTKESLGRKIQIQRSGHLNLYLLLDCSQSVSENDFLIFKESASLMVDRIFSFEINVSVAIITFASEPKVLMSVLNDNSRDMTEVISSLENANYKDHENGTGTNTYAALNSVYLMMNNQMRLLGMETMAWQEIRHAIILLTDGKSNMGGSPKTAVDHIREILNINQKRNDYLDIYAIGVGKLDVDWRELNELGSKKDGERHAFILQDTKALHQVFEHMLDVSKLTDTICGVGNMSANASDQERTPWHVTIKPKSQETCRGALISDQWVLTAAHCFRDGNDHSLWRVNVGDPKSQWGKEFLIEKAVISPGFDVFAKKNQGILEFYGDDIALLKLAQKVKMSTHARPICLPCTMEANLALRRPQGSTCRDHENELLNKQSVPAHFVALNGSKLNINLKMGVEWTSCAEVVSQEKTMFPNLTDVREVVTDQFLCSGTQEDESPCKGESGGAVFLERRFRFFQVGLVSWGLYNPCLGSADKNSRKRAPRSKVPPPRDFHINLFRMQPWLRQHLGDVLNFLPL | binds | binds | binds |  |  |
| TruB pseudouridine synthase family member 2 (enzyme, UniProt O95900 11-331) GLFAVYKPPGLKWKHLRDTVELQLLKGLNARKPPAPKQRVRFLLGPMEGSEEKELTLTATSVPSFINHPLVCGPAFAHLKVGVGHRLDAQASGVLVLGVGHGCRLLTDMYNAHLTKDYTVRGLLGKATDDFREDGRLVEKTTYDHVTREKLDRILAVIQGSHQKALVMYSNLDLKTQEAYEMAVRGLIRPMNKSPMLITGIRCLYFAPPEFLLEVQCMHETQKELRKLVHEIGLELKTTAVCTQVRRTRDGFFTLDSALLRTQWDLTNIQDAIRAATPQVAAELEKSLSPGLDTKQLPSPGWSWDSQGPSSTLGLERGAGQ |  |  | binds |  | binds |
| DEP domain containing 1 (protein, UniProt Q5TB30 1-811) MESQGVPPGPYRATKLWNEVTTSFRAGMPLRKHRQHFKKYGNCFTAGEAVDWLYDLLRNNSNFGPEVTRQQTIQLLRKFLKNHVIEDIKGRWGSENVDDNNQLFRFPATSPLKTLPRRYPELRKNNIENFSKDKDSIFKLRNLSRRTPKRHGLHLSQENGEKIKHEIINEDQENAIDNRELSQEDVEEVWRYVILIYLQTILGVPSLEEVINPKQVIPQYIMYNMANTSKRGVVILQNKSDDLPHWVLSAMKCLANWPRSNDMNNPTYVGFERDVFRTIADYFLDLPEPLLTFEYYELFVNILVVCGYITVSDRSSGIHKIQDDPQSSKFLHLNNLNSFKSTECLLLSLLHREKNKEESDSTERLQISNPGFQERCAKKMQLVNLRNRRVSANDIMGGSCHNLIGLSNMHDLSSNSKPRCCSLEGIVDVPGNSSKEASSVFHQSFPNIEGQNNKLFLESKPKQEFLLNLHSEENIQKPFSAGFKRTSTLTVQDQEELCNGKCKSKQLCRSQSLLLRSSTRRNSYINTPVAEIIMKPNVGQGSTSVQTAMESELGESSATINKRLCKSTIELSENSLLPASSMLTGTQSLLQPHLERVAIDALQLCCLLLPPPNRRKLQLLMRMISRMSQNVDMPKLHDAMGTRSLMIHTFSRCVLCCAEEVDLDELLAGRLVSFLMDHHQEILQVPSYLQTAVEKHLDYLKKGHIENPGDGLFAPLPTYSYCKQISAQEFDEQKVSTSQAAIAELLENIIKNRSLPLKEKRKKLKQFQKEYPLIYQKRFPTTESEAALFGDKPTIKQPMLILRKPKFRSLR |  |  |  |  | binds |
| F-Box protein 2 (protein, UniProt Q9UK22 1-296) MDGDGDPESVGQPEEASPEEQPEEASAEEERPEDQQEEEAAAAAAYLDELPEPLLLRVLAALPAAELVQACRLVCLRWKELVDGAPLWLLKCQQEGLVPEGGVEEERDHWQQFYFLSKRRRNLLRNPCGEEDLEGWCDVEHGGDGWRVEELPGDSGVEFTHDESVKKYFASSFEWCRKAQVIDLQAEGYWEELLDTTQPAIVVKDWYSGRSDAGCLYELTVKLLSEHENVLAEFSSGQVAVPQDSDGGGWMEISHTFTDYGPGVRFVRFEHGGQDSVYWKGWFGARVTNSSVWVEP |  |  |  |  | binds |
| Cytochrome c oxidase subunit family member (protein, UniProt Q5JTJ3 1-125) MGPGGPLLSPSRGFLLCKTGWHSNRLLGDCGPHTPVSTALSFIAVGMAAPSMKERQVCWGARDEYWKCLDENLEDASQCKKLRSSFESSCPQQWIKYFDKRRDYLKFKEKFEAGQFEPSETTAKS |  |  |  |  | binds |
| Protein C inhibitor (protein, UniProt P05154 26-406) EMKKRVEDLHVGATVAPSSRRDFTFDLYRALASAAPSQSIFFSPVSISMSLAMLSLGAGSSTKMQILEGLGLNLQKSSEKELHRGFQQLLQELNQPRDGFQLSLGNALFTDLVVDLQDTFVSAMKTLYLADTFPTNFRDSAGAMKQINDYVAKQTKGKIVDLLKNLDSNAVVIMVNYIFFKAKWETSFNHKGTQEQDFYVTSETVVRVPMMSREDQYHYLLDRNLSCRVVGVPYQGNATALFILPSEGKMQQVENGLSEKTLRKWLKMFKKRQLELYLPKFSIEGSYQLEKVLPSLGISNVFTSHADLSGISNHSNIQVSEMVHKAVVEVDESGTRAAAATGTIFTFRSARLNSQRLVFNRPFLMFIVDNNILFLGKVNRP | binds | binds |  |  |  |
| Fetuin-B (protein, UniProt Q9UGM5 16-382) CGAMSPPQLALNPSALLSRGCNDSDVLAVAGFALRDINKDRKDGYVLRLNRVNDAQEYRRGGLGSLFYLTLDVLETDCHVLRKKAWQDCGMRIFFESVYGQCKAIFYMNNPSRVLYLAAYNCTLRPVSKKKIYMTCPDCPSSIPTDSSNHQVLEAATESLAKYNNENTSKQYSLFKVTRASSQWVVGPSYFVEYLIKESPCTKSQASSCSLQSSDSVPVGLCKGSLTRTHWEKFVSVTCDFFESQAPATGSENSAVNQKPTNLPKVEESQQKNTPPTDSPSKAGPRGSVQYLPDLDDKNSQEKGPQEAFPVHLDLTTNPQGETLDISFLFLEPMEEKLVVLPFPKEKARTAECPGPAQNASPLVLPP | binds | binds |  |  |  |
| Angiopoietin-like protein 3 (protein, UniProt Q9Y5C1 17-460) SRIDQDNSSFDSLSPEPKSRFAMLDDVKILANGLLQLGHGLKDFVHKTKGQINDIFQKLNIFDQSFYDLSLQTSEIKEEEKELRRTTYKLQVKNEEVKNMSLELNSKLESLLEEKILLQQKVKYLEEQLTNLIQNQPETPEHPEVTSLKTFVEKQDNSIKDLLQTVEDQYKQLNQQHSQIKEIENQLRRTSIQEPTEISLSSKPRAPRTTPFLQLNEIRNVKHDGIPAECTTIYNRGEHTSGMYAIRPSNSQVFHVYCDVISGSPWTLIQHRIDGSQNFNETWENYKYGFGRLDGEFWLGLEKIYSIVKQSNYVLRIELEDWKDNKHYIEYSFYLGNHETNYTLHLVAITGNVPNAIPENKDLVFSTWDHKAKGHFNCPEGYSGGWWWHDECGENNLNGKYNKPRAKSKPERRRGLSWKSQNGRLYSIKSTKMLIHPTDSESFE |  |  |  | binds |  |

Results are given in words; binding and its absence hold for the method and conditions named. Binding seen in cells or lysates may run through a third protein. A yes stands for co-enrichment or nearness to the bait. Other partners may have been found.
